From paper PMC9160049, “Cryo-EM structures of Gid12-bound GID E3 reveal steric blockade as a mechanism inhibiting substrate ubiquitylation” (Nature Communications, 2022)
Results are given in words; binding and its absence hold for the method and conditions named. For some of these results: Binding seen in cells or lysates may run through a third protein. Some entries that bind do so weakly or less than the wild type. For some of these results: Tags and fused reporters may be left off the sequences shown.

Key:
[1] = target: T1, 2×Strep-Gid1 (Twin-Strep tag fused at the N-terminus of Gid1) (S. cerevisiae) (UniProt P53076); experiment: pull-down; Hi5 insect cells co-expressing combinations of 2×Strep-Gid1, Gid8, Gid5, Gid4 and Gid10 (with Gid12); Strep-Tactin pulldown on Gid1, 4 °C; 50 mM Tris/HCl pH 7.5, 200 mM NaCl, 5 mM DTT; SDS-PAGE
T1 sequence: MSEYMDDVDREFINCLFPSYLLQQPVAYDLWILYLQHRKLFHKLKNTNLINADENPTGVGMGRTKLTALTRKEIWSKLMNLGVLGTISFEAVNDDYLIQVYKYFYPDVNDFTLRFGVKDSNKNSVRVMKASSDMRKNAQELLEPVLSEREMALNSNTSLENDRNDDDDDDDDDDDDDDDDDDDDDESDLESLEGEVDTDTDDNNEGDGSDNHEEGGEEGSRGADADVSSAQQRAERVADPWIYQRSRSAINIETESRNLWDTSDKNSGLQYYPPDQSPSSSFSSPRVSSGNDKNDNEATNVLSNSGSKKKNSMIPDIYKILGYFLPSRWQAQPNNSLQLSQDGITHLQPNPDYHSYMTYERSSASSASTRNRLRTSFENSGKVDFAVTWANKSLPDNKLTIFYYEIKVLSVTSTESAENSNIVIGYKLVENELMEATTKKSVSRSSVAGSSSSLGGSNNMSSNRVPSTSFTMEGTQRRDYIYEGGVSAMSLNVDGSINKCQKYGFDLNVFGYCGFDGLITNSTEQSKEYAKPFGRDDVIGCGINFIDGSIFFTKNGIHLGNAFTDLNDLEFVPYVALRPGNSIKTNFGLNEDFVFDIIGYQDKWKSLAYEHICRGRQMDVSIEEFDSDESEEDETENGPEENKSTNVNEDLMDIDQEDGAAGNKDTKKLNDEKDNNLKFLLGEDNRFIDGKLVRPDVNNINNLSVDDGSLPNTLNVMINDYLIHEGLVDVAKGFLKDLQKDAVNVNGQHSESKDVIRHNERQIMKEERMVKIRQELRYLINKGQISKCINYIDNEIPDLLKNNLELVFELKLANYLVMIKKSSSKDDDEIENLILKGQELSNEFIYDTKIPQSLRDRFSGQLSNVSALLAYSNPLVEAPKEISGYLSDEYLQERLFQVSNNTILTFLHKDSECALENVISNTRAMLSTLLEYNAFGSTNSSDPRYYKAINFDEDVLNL

[2] = target: T2, Gid4 (recombinant, untagged, co-expressed) (S. cerevisiae) (UniProt P38263); experiment: cryo-EM structure; maps of Gid12-GID^SR4 (9.8 Å), Gid12-Chelator-GID^SR4 (19.4 Å) and Gid12-Cage-GID^SR4 (20.6 Å), complexes co-expressed in Hi5 cells and purified; docked with Gid12-SRS and prior structures; both purified
T2 sequence: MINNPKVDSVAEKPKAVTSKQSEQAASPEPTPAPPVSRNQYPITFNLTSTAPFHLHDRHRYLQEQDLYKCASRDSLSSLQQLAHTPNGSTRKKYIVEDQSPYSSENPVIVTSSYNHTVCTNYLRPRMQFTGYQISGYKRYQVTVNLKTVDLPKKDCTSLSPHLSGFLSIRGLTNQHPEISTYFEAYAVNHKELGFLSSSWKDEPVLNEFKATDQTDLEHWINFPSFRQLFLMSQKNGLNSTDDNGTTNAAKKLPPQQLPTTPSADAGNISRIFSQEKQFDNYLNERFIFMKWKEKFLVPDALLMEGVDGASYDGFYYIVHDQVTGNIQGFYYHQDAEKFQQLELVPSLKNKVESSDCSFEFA

[3] = target: T3, Gid5 (recombinant, untagged, co-expressed) (S. cerevisiae) (UniProt P40547); experiment: cryo-EM structure; Gid12-SRS (Gid12-Gid4-Gid5-Gid1-Gid8) co-expressed in Hi5 cells and purified as a complex; 3.3 Å; 25 mM MES pH 6.5, 150 mM NaCl, 1 mM DTT; both purified
T3 sequence: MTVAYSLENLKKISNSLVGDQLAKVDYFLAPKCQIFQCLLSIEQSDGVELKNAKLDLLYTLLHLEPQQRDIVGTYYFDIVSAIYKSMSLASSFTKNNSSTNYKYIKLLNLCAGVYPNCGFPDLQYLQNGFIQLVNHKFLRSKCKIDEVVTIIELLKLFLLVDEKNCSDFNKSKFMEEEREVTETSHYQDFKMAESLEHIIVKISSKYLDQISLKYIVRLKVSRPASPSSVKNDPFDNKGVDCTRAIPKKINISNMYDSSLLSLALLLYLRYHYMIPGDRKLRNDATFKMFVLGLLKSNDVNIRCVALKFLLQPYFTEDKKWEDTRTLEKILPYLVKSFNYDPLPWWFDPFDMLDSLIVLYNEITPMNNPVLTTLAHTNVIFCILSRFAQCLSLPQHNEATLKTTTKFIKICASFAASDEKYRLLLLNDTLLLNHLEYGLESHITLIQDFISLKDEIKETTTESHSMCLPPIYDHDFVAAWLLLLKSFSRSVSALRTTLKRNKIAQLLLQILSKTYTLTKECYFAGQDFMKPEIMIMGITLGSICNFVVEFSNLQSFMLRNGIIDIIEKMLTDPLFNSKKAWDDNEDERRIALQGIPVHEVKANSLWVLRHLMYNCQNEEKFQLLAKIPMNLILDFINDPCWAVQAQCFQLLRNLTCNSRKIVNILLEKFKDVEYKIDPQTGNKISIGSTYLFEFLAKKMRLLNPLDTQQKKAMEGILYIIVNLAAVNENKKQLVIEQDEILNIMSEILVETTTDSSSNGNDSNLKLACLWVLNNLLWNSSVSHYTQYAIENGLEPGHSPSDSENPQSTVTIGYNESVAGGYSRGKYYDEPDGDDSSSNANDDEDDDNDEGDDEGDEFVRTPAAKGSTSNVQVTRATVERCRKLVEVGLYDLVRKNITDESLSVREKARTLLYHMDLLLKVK

[4] = target: T2, Gid4 (recombinant, untagged, co-expressed) (S. cerevisiae); experiment: as above
[5] = target: T4, GST-Gid1 (N-terminal GST-tagged Gid1) (S. cerevisiae) (UniProt P53076); experiment: pull-down; Hi5 insect cells co-infected with baculoviruses for all GID subunits, Gid12 and Moh1 or all but one; pulldown of GST-Gid1, Twin-Strep-Gid5 or Twin-Strep-Gid1 from lysate; 50 mM Tris-HCl pH 8.0, 200 mM NaCl, 5 mM DTT; SDS-PAGE, Coomassie
T4 sequence: T1 sequence

[6] = target: T5, Strep-Gid5 (N-terminal Twin-Strep-tagged Gid5) (S. cerevisiae) (UniProt P40547); experiment: as above
T5 sequence: T3 sequence

[7] = target: T6, 2×Strep-Gid4 (S. cerevisiae) (UniProt P38263); experiment: pull-down; 2×Strep-Gid4 and Gid12 co-expressed in Hi5 cells; subcomplex purified by Strep-Tactin affinity chromatography and SEC; 25 mM HEPES pH 7.5, 150 mM NaCl, 1 mM DTT
T6 sequence: T2 sequence

Measured: binding

B1: Gid12-9×cMYC (natural protein, S. cerevisiae (endogenous in BY4741), UniProt Q12027 1-708, looked up)
chain: MATGRIQFAVSTPCNTKGKPSGYRLFEFKNDRLALVPSERGCTKVDVNANIQAFCYLRPNGRDTSISPDATHILDSCDYMVLAKSNGFIEIISNYQYKIKNGLRLAPSYILRCTPEDFESNFFSDYMIAGLEYSQGLLYCCMCSGRIYVFVMNLPTDYIQYKNMYNPMFPDCFFKVHHDNNTTHSSEEEKLFEGSTRYTGRSCSKHICYFLLPIEPSHLRSSPVVSSFCNMYQGLPIYRPSMYLHIERGISTFHINPLDRFCFMTVSPRSPLFIRKIILPLTYVTFLSTFISLKNSIQGDTCGEILSWDNVAQQNGFGSLFSWISNKFTFDTDIINSTIWDDIVKYSGTGMLDSGIVWKQRQGHAKDDIYELFHTQDMLGSSRRNSSFSTASSEPRPLSRRRRESFQALTRDAFRERMDVPCSTKWELDSFIRGLRRNTFMVDFEIVEKISHRNGNDGVNEDDNTTDESDETMTSFLTDNYKKMDIVCIDHFVTLSAFRPRYYDEPIIKIDSLSNKNGSENGTNEEEWAESQMKVDGQVIDDETAQFKQALGNLCSFKKLFMLDDSLCFILDTHGVLLINRFEIKNTKNLLRNSKDTIRIIPHDFGLINDTIVIINDIDVGTDNVCALTFHLVVTSMAGEITVLKGEFFKNCRLGRIKLCDSLKLNRKDRFVDKLALIDYDGLNAQKRRLDYDEKDLYTFIVKKVKRD
notes: Gid12 (Ipf1, YDL176W), S. cerevisiae, tagged at the endogenous locus; The strain name is written GID12-9×cMYC; source: endogenous locus, BY4741 GID12-9×cMYC::kanMX4, 3×HA-GID4 yeast, in lysate
binds: [1] | [2] | [3] | [4] | [5] | [6] | [7]
